Results as given in PubChem BioAssay (EPA / NIEHS).
This list was built around the results that the source calls inconclusive (neither active nor inactive); the mix of calls is not that of the screen. Potencies beside an inconclusive call are fits to weak or partial responses and may not hold up. The source made the active and inactive calls. Rule for the calls: active = hit-call score of the fitted dose curve at least 0.9, where 1 is the maximum; inconclusive = response in the unintended direction; inactive = score below 0.9.

By UniProt entry, the sequences of proteins in these tests, tags left out. Where a name states a change or a piece, a line headed by the entry shows the natural chain unless it says otherwise.
UniProt Q01717: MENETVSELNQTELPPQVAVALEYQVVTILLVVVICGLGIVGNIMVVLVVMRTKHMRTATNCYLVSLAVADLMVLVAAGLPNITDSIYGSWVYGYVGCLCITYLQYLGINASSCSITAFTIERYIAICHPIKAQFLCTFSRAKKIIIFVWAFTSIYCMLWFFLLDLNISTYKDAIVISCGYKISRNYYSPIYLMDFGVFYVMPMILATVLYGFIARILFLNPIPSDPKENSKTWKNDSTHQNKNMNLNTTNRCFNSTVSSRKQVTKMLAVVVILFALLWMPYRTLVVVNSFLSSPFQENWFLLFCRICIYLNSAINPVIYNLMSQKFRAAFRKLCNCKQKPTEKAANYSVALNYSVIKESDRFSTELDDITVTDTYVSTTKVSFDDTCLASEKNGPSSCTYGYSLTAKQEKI

What follows are compounds tested against rat Thyrotropin Releasing Hormone Receptor (TRH), Trhr (gene 25570) (UniProt Q01717) (assay: NVS_GPCR_rTRH: NovaScreen (NVS) G Protein-Coupled Receptor Assay for rat Thyrotropin Releasing Hormone Receptor (TRH) (AID 2283329);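 note: hit means lower bound tracer signal versus DMSO baseline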).
Protocol: NVS_GPCR_rTRH is a biochemical, single-readout assay that uses extracted gene-proteins from Rat forebrain membranes in a tissue-based cell-free assay. Measurements were taken 4 hours after chemical dosing in a 48-well plate.NVS_GPCR_rTRH is one of one assay component(s) measured or calculated from the NVS_GPCR_rTRH assay. It is designed to make measurements of radioligand binding, a form of binding reporter, as detected with scintillation counting signals by Filter-based radiodetection technology.Data from the assay component NVS_GPCR_rTRH was analyzed into 1 assay endpoint. This assay endpoint, NVS_GPCR_rTRH, was analyzed in the positive analysis fitting direction relative to DMSO as the negative control and baseline of activity. Using a type of binding reporter, loss-of-signal activity can be used to understand changes in the binding as they relate to the gene Trhr. Furthermore, this assay endpoint can be referred to as a primary readout, because the performed assay has only produced 1 assay endpoint. To generalize the intended target to other relatable targets, this assay endpoint is annotated to the gpcr intended target family, where the subfamily is rhodopsin-like receptor.
Binding assays used specific radioligands (tritiated, iodinated) with non-radioactive competitive displacement ligands in agonist or antagonist protocols (as indicated) and various reference compounds and inhibitors to titrate specific binding to receptors and transporters. Most enzyme assays (CYPs, kinases, phosphatases, proteases, HDACs) used recombinant protein and specific substrates (fluorescence mostly, some colorimetric and radioactive) and inhibitors, followed by a biochemical separation of substrate and product. All assays for the biochemical HTS were initially run in duplicate at a single concentration (10 uM for CYP450 assays and 25 uM for all others). […] Each assay was run with positive and negative controls, and concurrent controls on every plate. The follow-up (secondary) screen tested active chemical-pairs in concentration series, as well as a few additional assays not tested in the primary screen, some selected negative inactives, and several cases re-run in the concentration series for confirmatory purposes.

| Structure (SMILES) | AC50 | outcome |
| --- | --- | --- |
| C[Si](C)(C)O[Si](C)(C)C | inconclusive: 25 µM | – |
| CCCCCCOC(=O)c1ccccc1O | inconclusive: 6.52 µM | – |
| C=CC[N+](C)(C)CC=C | inconclusive: 25 µM | – |
| Cc1cc(Cc2ccc(N)c(C)c2)ccc1N | – | inactive |
| CC(O)CN (stereo not given) | inconclusive: 6.71 µM | – |
| c1ccc2[nH]ccc2c1 | inconclusive: 4.96 µM | – |
| COc1ccc(O)cc1 | inconclusive: 0.014 µM | – |
| N#Cc1ccc(C(c2ccc(C#N)cc2)n2cncn2)cc1 | inconclusive: 1.18 µM | – |
| CCC(=O)/C=C/C1C(C)=CCCC1(C)C (stereo not given) | inconclusive: 0.849 µM | – |
| O=P(O)(O)O | inconclusive: 5.15 µM | – |
| CCNCCO | – | inactive |
| OC[C@H]1O[C@@H]2O[C@H]3[C@H](O)[C@@H](O)[C@@H](O[C@H]4[C@H](O)[C@@H](O)[C@@H](O[C@H]5[C@H](O)[C@@H](O)[C@@H](O[C@H]6[C@H](O)[C@@H](O)[C@@H](O[C@H]7[C@H](O)[C@@H](O)[C@@H](O[C@H]8[C@H](O)[C@@H](O)[C@@H](O[C@H]9[C@H](O)[C@@H](O)[C@@H](O[C@H]1[C@H](O)[C@H]2O)O[C@@H]9CO)O[C@@H]8CO)O[C@@H]7CO)O[C@@H]6CO)O[C@@H]5CO)O[C@@H]4CO)O[C@@H]3CO | – | inactive |
| COc1ccccc1N=Nc1c(S(=O)(=O)O)cc2cc(S(=O)(=O)O)cc(NC(C)=O)c2c1O | inconclusive: 0.478 µM | – |
| CCc1cccc(C)c1N | inconclusive: 0.579 µM | – |
| NC(=O)NC1NC(=O)NC1=O (stereo not given) | inconclusive: 6.1 µM | – |
| NCCCCCCN | inconclusive: 4.96 µM | – |
| CCCC(=O)OC(C)(C)Cc1ccccc1 | inconclusive: 0.0298 µM | – |
| O=C(O)Cc1cccc2ccccc12 | inconclusive: 0.473 µM | – |
| CC(O)CC(C)(C)O (stereo not given) | – | inactive |
| O=C1NS(=O)(=O)c2ccccc21 | inconclusive: 6.86 µM | – |

| Structure (SMILES) | AC50 | outcome |
| --- | --- | --- |
| O=C(c1ccccc1)c1ccccc1O | inconclusive: 25 µM | – |
| CCCCOc1ccc(N)cc1 | inconclusive: 0.0489 µM | – |
| CCCCCCCCCC[N+](C)(CCCCCCCCCC)CCC[Si](OC)(OC)OC | – | inactive |
| Cc1ccc(S(N)(=O)=O)cc1 | inconclusive: 0.0759 µM | – |
| O=C1C(c2[nH]c3ccc(S(=O)(=O)O)cc3c2O)=Nc2ccc(S(=O)(=O)O)cc21 | inconclusive: 25 µM | – |
| CCOc1ccc(N=Nc2ccc(C=Cc3ccc(N=Nc4ccc(OCC)cc4)cc3S(=O)(=O)O)c(S(=O)(=O)O)c2)cc1 | inconclusive: 25 µM | – |
| O=C1NC2NC(=O)NC2N1 (stereo not given) | inconclusive: 25 µM | – |
| Cc1ccccc1S(=O)(=O)O | inconclusive: 0.258 µM | – |
| C/C=C/C=C/CCCCCCCO | – | inactive |
| CCCCC(CC)COC(C)=O (stereo not given) | inconclusive: 4.96 µM | – |
| CCCCCCC(=O)c1ccccc1 | inconclusive: 6.52 µM | – |
| CCCCCC(CO)CCC (stereo not given) | inconclusive: 5.74 µM | – |
| CC/C=C\CCO | inconclusive: 5.91 µM | – |
| CCCCCC(=O)OCC | inconclusive: 0.632 µM | – |
| COc1ccc(/C=C/S(=O)(=O)NC(=O)c2ccc(C)cc2Cl)cc1 | inconclusive: 0.102 µM | – |
| O=C(O)CCCCCCCCC(=O)O | inconclusive: 0.346 µM | – |
| O=C1OC2(c3ccc(O)cc3Oc3cc(O)ccc32)c2ccccc21 | inconclusive: 0.299 µM | – |
| CC1=CCC2CC1C2(C)C (stereo not given) | – | inactive |
| C[C@]12CC[C@@H]3c4ccc(O)cc4CC[C@H]3[C@@H]1CCC2=O | inconclusive: 0.331 µM | – |
| C1=CC2C3C=CC(C3)C2C1 (stereo not given) | – | inactive |

In a second layout: two of the compounds above
Structure (SMILES) | AC50 | outcome
CCCCCC(CO)CCC (stereo not given) | inconclusive: 5.74 µM | –
CC/C=C\CCO | inconclusive: 5.91 µM | –
